Results: US20040107456A1 (ACADEMIA SINICA, published 2004)

Experiments:
[1] = target: T1, GBD-OsMYBS2 fusion protein (yeast; rice); assay: two-hybrid in barley aleurone cells, luciferase reporter; similar results in yeast two-hybrid
T1 construct: Two-hybrid bait
Description: (§1) In c-Myb, R2 and R3 bind to specific DNA sequences cooperatively. To test the possibility that OsMYBS binds DNA as dimers, homologous and heterologous interactions among OsMYBS proteins were analyzed using a two-hybrid system in barley aleurone cells. The full-length OsMYBS sequences were individually fused at the C-terminus of GAD or GBD. The GAD-OsMYBS and GBD-OsMYBS chimeric genes were fused downstream of the Ubi promoter and used as effector constructs. A DNA fragment containing five tandem repeats of UAS (5×UAS) was fused upstream of the CaMV35S minimal promoter-Luc chimeric gene and used as a reporter construct. The barley half seeds were particle-bombarded simultaneously with two effector plasmids, each containing GAD-OsMYBS and GBD-OsMYBS fusion genes, and the reporter plasmid. The bombarded half seeds were incubated in buffer without glucose for 24 h, and luciferase activity was determined. […] Except that the background level of reporter gene expression in the presence of GBD-OsMYBS1 alone is too high to detect the interactions between GBD-OsMYBS1 and GAD-OsMYBS proteins, similar results were obtained with the yeast two-hybrid experiments.

[2] = target: T2, GBD-OsMYBS3 fusion protein (yeast; rice); assay: as above
T2 construct: Two-hybrid bait
Description: as §1

[3] = target: T3, GBD-OsMYBS1 fusion protein (yeast; rice, UniProt P04386 1-147); assay: two-hybrid in barley aleurone cells, luciferase reporter
T3 construct: Two-hybrid bait expressed from the Ubi promoter in barley aleurone cells
Description: as §1

Measured: binding result

B1: GAD-OsMYBS2 fusion protein (other)
chain: MPNLTSIDPLPVPADGGKRRASDDSELASGQQKRRRRKVQERKKGVPWTEEEHKKFLEGLRQLGKGDWRGISKNFVTSRTATQVASHAQKYFLRQTNPGKKKRRASLFDVVAECSDDQLPSPQSVGTKPPTQDIIHTDRGDVPILSYPVARGFRGDSVQVDELTEYVKRLKAAEDMSLSMISGLEMASSSISSLELSIAPSHLRIDGAIKGLGSKPNFPPKEFGSASATVFCPPCCCLLLLFFFFFFAGVVCCCCCCSCHANFVFGSCGVSFTSFI
notes: Two-hybrid prey expressed from the Ubi promoter in barley aleurone cells; not shown: limits not
no binding: [1] | [2] | [3]
